Source: PubChem BioAssay AID602346 (Broad Institute, 2012)
Out of some 340,000 compounds screened, about 1,200 (0.35%) were called active. Inconclusive means that the source gave no clear call. Such entries were picked first, then a sample of the others. No stated cut-off is given here; in the data, active means inhibition above about 50% (passing the limit was not always enough); inconclusive means no clear call, values can overlap the other calls; inactive means below about 31%.

Test: blockers of Vif multimerization in cells – imaging, HEK293T, single point, primary screen (AID 602346)
Details: Vif self-association by quenched fluorescence, 24 h, at 7.49 µM, active compounds read high
With `Fc1ccc(NCc2n[nH]c(=S)n2Cc2ccccc2)cc1` the inhibition was active: 62.3%.
In the case of `N#Cc1nc(-c2ccccc2)oc1N1CCCCC1`, the inhibition is reported as inactive: -10.6%.
With `Clc1ccc2c(N/N=C/c3cccc(Br)c3)ccnc2c1` the inhibition was inactive: -5.34%.
With `COC(=O)c1cc(S(=O)(=O)N2CCN(c3cccc(Cl)c3)CC2)c[nH]1` the inhibition was inconclusive: 41.5%.
In the case of `O=C(C1CCCN(S(=O)(=O)c2ccc(Cl)cc2)C1)N1CCCC1` (stereo not given), the inhibition is reported as inconclusive: 44%.
In the case of `CCOC(=O)C[C@@H](C#N)NC(=O)[C@@H]1CCCN1C(=O)[C@@H](NC(=O)c1ccc(N)c(Cl)c1)C(C)(C)C`, the inhibition is reported as active: 75.5%.
In the case of `CCCCc1nc(NCc2ccccc2)c(C#N)c2c1COC(C)(C)C2`, the inhibition is reported as inconclusive: 32.9%.
With `CCc1ccc(NC(=O)CCNS(=O)(=O)c2cccc3nonc23)cc1` the inhibition was inconclusive: 25.4%.
For `COc1ccc(NC(=O)/C(Cl)=C(/Cl)S(=O)Cc2ccc(Cl)cc2)cn1` (stereo not given), the inhibition was inconclusive: 44.9%.
With `COc1ccc(OC)c(NC(=O)N2CCCC(C(=O)c3ccccc3OC)C2)c1` (stereo not given) the inhibition was inactive: -1.19%.
With `COc1cc(C(C)=O)ccc1OCC(=O)NCC1(N2CCCCC2)CCCCC1` the inhibition was active: 51%.
In the case of `O=C(CNC(=O)c1ccncc1)N/N=C/c1ccccn1`, the inhibition is reported as active: 58.7%.
With `Cc1ccccc1C1NC(c2ccccc2C)C([N+](=O)[O-])C(C)(C)C1[N+](=O)[O-]` (stereo not given) the inhibition was inconclusive: 29.1%.
In the case of `CC1(C)CC(=O)C2=C(C1)N(Cc1ccco1)C(=O)NC2(C(F)(F)F)C(F)(F)F`, the inhibition is reported as active: 54.3%.
With `Oc1cccc(Nc2c3ccccc3nc3ccccc23)c1` the inhibition was inactive: -2.34%.
With `Cc1ccc(S(=O)(=O)N2CCOC2CNC(=O)C(=O)NCCc2ccccc2)cc1` (stereo not given) the inhibition was inactive: 0.62%.
For `CCOC(=O)Cc1csc(NC(=O)CCc2ccccc2)n1`, the inhibition was inconclusive: 34.4%.
With `Cc1c(NC(=O)c2ccc(Cl)c([N+](=O)[O-])c2)cccc1-n1cnnn1` the inhibition was active: 55.9%.
In the case of `COCCNCC(=O)Nc1nc(C)cs1`, the inhibition is reported as active: 59.2%.
In the case of `O=C1c2ccccc2C(=O)N1/N=C/c1ccc(Oc2ccc([N+](=O)[O-])cn2)cc1`, the inhibition is reported as inconclusive: 35.1%.
For `COc1ccc(OCC(=O)Nc2cc(-c3nn(C)c(=O)c4ccccc34)ccc2OC)cc1`, the inhibition was inactive: 2.18%.
For `CCOc1cc(C(=S)N2CCOCC2)ccc1OC(=O)c1ccc(C)cc1`, the inhibition was inactive: -3.43%.
For `Cc1cc2cc(C#N)c(SCC(=O)Nc3nonc3C)nc2cc1C`, the inhibition was active: 78.9%.
With `COC(=O)Nc1nc2ccc(Sc3ccccc3)cc2[nH]1` the inhibition was active: 57%.
For `C/C(=N/NC(=O)c1ccccn1)c1c[nH]c2ccccc12`, the inhibition was inactive: -0.264%.
For `Cc1ccc(NC(=O)c2ccc(CSc3nccc(C)n3)cc2)cc1`, the inhibition was inconclusive: 49.1%.
In the case of `O=C(N/N=C1\CCc2ccccc21)c1ccccc1Cl`, the inhibition is reported as inactive: 32.7%.
For `COc1ccc(-c2nnc(-c3ccc(N)cc3)o2)cc1`, the inhibition was inconclusive: 34.4%.
With `COc1ccc(S(=O)(=O)NNC(=O)c2cc3c4ccccc4n(C)c3s2)cc1` the inhibition was inconclusive: 38.6%.
With `CN(Cc1ccccc1F)C(=O)CN1c2cccc3cccc(c23)S1(=O)=O` the inhibition was inactive: 3.43%.
For `O=C(Nc1ccc(F)c(F)c1)NC1CCCCC1`, the inhibition was inactive: -4.21%.
In the case of `C[C@H](CO)N1C[C@H](C)[C@@H](CN(C)C(=O)c2ccc(N3CCN(C)CC3)cc2)OCc2cnnn2CCCC1=O`, the inhibition is reported as inconclusive: 30.2%.
For `Cc1ccc(CNC(=O)c2ccc(N3CCCC3=O)cc2)cc1`, the inhibition was inconclusive: 46.9%.
For `Cc1ccc(NC(=O)CCc2ccc(S(=O)(=O)N3CCOCC3)cc2)c(O)c1`, the inhibition was inconclusive: 25.6%.
With `COc1cccc2c1C(=O)O/C2=C/c1ccc2c(c1)OCO2` the inhibition was inconclusive: 34.4%.
For `O=C(NCCN1CCOCC1)c1cc2c(=O)n3ccccc3nc2n1Cc1ccccc1`, the inhibition was inconclusive: 36.3%.
For `O=C(Cc1ccsc1)NNC(=O)c1ccccc1O`, the inhibition was inconclusive: 44.4%.
With `Cc1cc2c(cc1S(=O)(=O)CCC(=O)N1CC(C)CC(C)C1)OCC(=O)N2` (stereo not given) the inhibition was inconclusive: 31.2%.
In the case of `COc1cccc(C(=O)NNC(=O)c2ccc(NS(=O)(=O)c3cccs3)cc2)c1OC`, the inhibition is reported as inconclusive: 42.3%.
With `C=CCSC1=NC(N)=C(C#N)C2(CCCCC2)C1C(N)=O` (stereo not given) the inhibition was inconclusive: 22%.
For `O=C(c1cccs1)N1CCN(S(=O)(=O)c2ccccc2)CC1`, the inhibition was inconclusive: 36.8%.
For `Cc1cc(NC(=O)CSc2nnc(Nc3ccccc3C)s2)no1`, the inhibition was inactive: 7.58%.
With `O=C(Nc1ncc(Br)s1)C1CCCN1S(=O)(=O)c1cccc2cccnc12` (stereo not given) the inhibition was inconclusive: 61.3%.
With `O=C(CNC(=O)c1ccco1)NCc1ccc2c(c1)OCO2` the inhibition was inactive: 1.12%.
With `CC(=O)Nc1ccc(NC(=O)CCn2c(=O)oc3ccccc32)cc1` the inhibition was inconclusive: 40.1%.
For `CCNC(=O)N(C)c1c(CC)nc2ccc(C(=O)N3CCN(S(=O)(=O)CC)CC3)cn12`, the inhibition was inconclusive: 34.5%.
With `CC(=O)c1ccc(OC(=O)C(CCS(C)(=O)=O)N2C(=O)c3ccccc3C2=O)cc1` (stereo not given) the inhibition was active: 81.2%.
In the case of `Clc1ccc2c(c1)c1ccccc1n2CN1CCOCC1`, the inhibition is reported as inconclusive: 19.5%.
In the case of `Cc1ccc(Nc2cc(=O)[nH]c(=O)[nH]2)cc1C`, the inhibition is reported as active: 56.8%.
With `CC1CCN(CC(=O)Nc2nccs2)CC1` the inhibition was active: 50.9%.
In the case of `CC1(C(=O)NS(=O)(=O)c2ccc3c(c2)CCO3)CCN1C(=O)Cc1ccc(-c2ccccc2)cc1` (stereo not given), the inhibition is reported as inactive: 0.039%.
In the case of `C#CCOc1ccc(CNC[C@H]2O[C@@H](n3cnc4c(N)ncnc43)[C@H](O)[C@@H]2O)cc1`, the inhibition is reported as inconclusive: 38.3%.
With `CC(C)(C)NCCC(O)c1cc(C(F)(F)F)nc2c(C(F)(F)F)cccc12` (stereo not given) the inhibition was inactive: 10.4%.
In the case of `CCOC(=O)[C@H]1[C@H]2COc3cc(OC)ccc3[C@@H]2N2C(=O)N(c3ccc(Br)cc3)C(=O)[C@@]12C`, the inhibition is reported as inconclusive: 35%.
With `COCCNC(=O)NC(=O)CN1CCN(C(c2ccccc2)c2ccccc2)CC1` the inhibition was inactive: 33.1%.
For `Cn1cccc1C(=O)NC(=O)CSc1nnc(C2CC2)n1-c1ccccc1`, the inhibition was inconclusive: 43.2%.
With `Cc1noc(C)c1COc1cccc(C(=O)NCc2ccccc2Cl)c1` the inhibition was inconclusive: 28.4%.
For `Cc1cccc(C)c1NC(=O)CN1CCN(c2ccc(C(F)(F)F)cn2)CC1`, the inhibition was inconclusive: 47.3%.
With `COc1ccc(CCN2C(=O)c3cccnc3C2=O)cc1OC` the inhibition was active: 55.9%.
For `CC(C)NS(=O)(=O)c1ccc(OCC(=O)N2CCCC2)c(Cl)c1`, the inhibition was inconclusive: 47.7%.
For `O=C(Nc1ccc(N2CCN(C(=O)c3ccc(Cl)cc3)CC2)cc1)c1ccc(Br)o1`, the inhibition was inconclusive: 34.4%.
For `CCc1[nH]c(=O)c(C#N)c2c1CSC(C)(C)C2`, the inhibition was inconclusive: 45.3%.
For `CCN(CC)C(=O)c1c2c(nc3ccccc13)-c1ccccc1CC2`, the inhibition was inactive: 10.4%.
For `CNS(=O)(=O)c1cccc(C(=O)OCC(=O)c2c(N)n(C)c(=O)n(C)c2=O)c1`, the inhibition was inactive: -0.615%.
With `COc1ccc(NC(=O)CN2CCN(CC(=O)Nc3ccc(OC)c(OC)c3)CC2)cc1` the inhibition was inactive: 1.78%.
In the case of `Cc1sc2ncnc(N3CCC(C(=O)NNC(=O)c4ccccc4Cl)CC3)c2c1C`, the inhibition is reported as inactive: -12.8%.
For `Oc1ccc(/C=N/N=C/c2ccc(O)c(O)c2)cc1O`, the inhibition was active: 72.3%.
With `COc1ccc(/C(O)=C2/C(=O)C(=O)N(CCCN3CCOCC3)C2c2ccc(Cl)cc2)cc1` (stereo not given) the inhibition was inactive: 9.71%.
For `NCCc1cnc[nH]1`, the inhibition was inconclusive: 35.5%.
In the case of `CC1CN(C)C(C)C/C1=N\Oc1ccc([N+](=O)[O-])cc1` (stereo not given), the inhibition is reported as inactive: 3.61%.
For `CCOc1ccc(NC(=O)C(CC(=O)O)Cc2ccc(C)cc2)cc1` (stereo not given), the inhibition was inconclusive: 28.1%.
In the case of `O=C(Nc1nc(-c2cccs2)cs1)c1ccc([N+](=O)[O-])o1`, the inhibition is reported as inconclusive: 34.8%.
In the case of `COc1ccccc1CNC(=O)c1ccc(Cl)c(NC2=NC3CS(=O)(=O)CC3S2)c1` (stereo not given), the inhibition is reported as active: 59.6%.
With `O=C(CSc1ncccn1)NC(=O)Nc1ccc2c(c1)OCCO2` the inhibition was active: 60.2%.
For `Cc1onc(-c2ccccc2)c1C(=O)NNC(=S)NC(=O)c1ccc2c(c1)OCO2`, the inhibition was inactive: 30.9%.
For `COC(=O)N1CCCCC1c1cc(C(=O)Nc2ccc3c(c2)OCO3)no1` (stereo not given), the inhibition was inconclusive: 46.9%.
In the case of `CCOc1cc(N2CCOCC2)c(OCC)cc1NC(=O)CN1C(=O)NC2(CCCCC2)C1=O`, the inhibition is reported as inconclusive: 47%.
In the case of `CCC(=O)Nc1ccc(C(=O)NNC(=O)c2cc([N+](=O)[O-])cc([N+](=O)[O-])c2)cc1`, the inhibition is reported as inconclusive: 26.9%.
With `COC(=O)c1cccc(NC(=O)CSc2nnc(C3CC3)n2C)c1` the inhibition was inconclusive: 45.6%.
For `Cc1cccc(C(=O)NN/C=C/C(=O)c2ccccc2)c1`, the inhibition was inactive: 19%.
In the case of `CSc1n[nH]c(NCc2ccccc2)n1`, the inhibition is reported as inconclusive: 33.8%.
For `COc1ccc2c(C(=O)CCl)c[nH]c2c1`, the inhibition was inconclusive: 19.2%.
With `O=C(CN1CCC(NC(=O)Nc2ccccc2)CC1)Nc1ccccc1F` the inhibition was inconclusive: 20.4%.
In the case of `Cc1csc(NC(=O)CSc2nncn2C)n1`, the inhibition is reported as inconclusive: 38.1%.
In the case of `C[C@H](N)c1nnc(SCC(N)=O)o1`, the inhibition is reported as inconclusive: 25.4%.
In the case of `CC(C)(C)c1nc(Sc2ncccc2[N+](=O)[O-])n[nH]1`, the inhibition is reported as inconclusive: 25.1%.
For `CCOC(=O)CC1=C(C(=O)OCC)C(c2ccc(OC)cc2OC)C(C#N)=C(N)O1` (stereo not given), the inhibition was inconclusive: 25.3%.
For `CC(NC(=O)N(Cc1ccccc1)Cc1ccc2c(c1)OCO2)(C(F)(F)F)C(F)(F)F`, the inhibition was active: 82.7%.
With `O=C(NC1=NCCS1)c1cc(-c2cccnc2)nc2ccccc12` the inhibition was inconclusive: 29.3%.
For `Oc1ccc(-c2nc(-c3ccc(O)c(O)c3)cs2)cc1`, the inhibition was active: 64.4%.
